No constants are given. Whether binding was seen depends on the method and setting. Binding seen in cells or lysates may run through a third protein.
Molecular target: 9xmyc-Atg11 ΔCTR (S. cerevisiae)
Experiment: co-IP; S. cerevisiae Atg11Δ with pRS315-9myc-Atg11 plasmids, grown in YPD; anti-myc Dynabeads 1 h at 4°C in RLB+ buffer; western blot with anti-myc and anti-Atg19

B1: Atg19 (endogenous, S. cerevisiae) (protein, UniProt P35193 1-415)
chain: MNNSKTNQQMNTSMGYPLTVYDECNKFQLIVPTLDANIMLWCIGQLSLLNDSNGCKHLFWQPNDKSNVRILLNNYDYGHLFKYLQCQRKCSVYIGEGTLKKYNLTISTSFDNFLDLTPSEEKESLCREDAHEDPVSPKAGSEEEISPNSTSNVVVSRECLDNFMKQLLKLEESLNKLELEQKVTNKEPNHRISGTIDIPEDRSELVNFFTELKTVKQLEDVFQRYHDYERLSQECDSKTEIASDHSKKETKIEVEPPNERSLQITMNQRDNSLYFQLFNNTNSVLAGNCKLKFTDAGDKPTTQIIDMGPHEIGIKEYKEYRYFPYALDLEAGSTIEIENQYGEVIFLGKYGSSPMINLRPPSRLSAESLQASQEPFYSFQIDTLPELDDSSIISTSISLSYDGDDNEKALTWEEL
- binding: no binding

— PMC6477179
